Experimental data published in PubChem BioAssay AID248 (DTP/NCI, 2004).
The list is a part of this screen's results and no random one: it gathers tests that were run many times, whatever their T/C, doses with no T/C, and many T/C values between a quarter and a half above the control. Other doses and runs of a compound stand elsewhere. T/C is the treated group as % of the vehicle group. Some doses have a count of surviving animals in place of a T/C: the source files T/C as zero there, which appears to mark a toxic dose or a test without result, not a measured value. Some survivor counts are full or nearly so, which does not show that the dose was tolerated: the source hardly ever lists a survival T/C far under the control, and the zero likely stands for such cases as well. Survivors were counted at the toxicity check, usually on the fifth day, unless a day is given; later deaths do not show. Schedule codes are those of the source, taken here to give the interval after Q, in days (D) or hours (H), and the number of doses after X. Where survival is the endpoint, the PubChem record calls one and a half times the control and up active, and a quarter to a half above the control has no call in these data; cut-offs in other NCI protocols can differ.

Test system: L1210 leukemia ip in BDF1 mice, survival T/C
Assay: NCI In Vivo Anticancer Drug Screen. Data for tumor model L1210 Leukemia (intraperitoneal) in B6D2F1 (BDF1) mice
Conditions: T/C endpoint: mean survival time, higher T/C = longer survival
[1] = dose: 400.0 mg/kg/injection, schedule: Q01DX001 (ip), vehicle: carboxymethylcellulose (CMC)
[2] = dose: 200.0 mg/kg/injection, schedule: Q04DX003 (ip), vehicle: saline with Tween-80
[3] = dose: 10.0 mg/kg/injection, schedule: Q04DX002 (ip), vehicle: saline + alcohol

For C[N+]1(CC2CO2)CCCCCC1 (stereo not drawn), the survivor count (dose: 150.0 mg/kg/injection, schedule: Q01DX001 (ip), vehicle: saline) was 3 of 6 and the survivor count (dose: 300.0 mg/kg/injection, schedule: Q01DX001 (ip), vehicle: saline) was 0 of 6.

With CC1C[N+](C)=C(c2ccc(O)cc2)S1 (stereo not drawn) the survivor count (dose: 200.0 mg/kg/injection, schedule: Q01DX001 (ip), vehicle: saline with Tween-80) was 0 of 3.

For CC(c1c[nH]c2ccccc12)N1CCCCC1 (stereo not drawn), the survivor count (dose: 100.0 mg/kg/injection, schedule: Q04DX003 (ip), vehicle: acetone) was 1 of 6, the survivor count (dose: 200.0 mg/kg/injection, schedule: Q01DX001 (ip), vehicle: carboxymethylcellulose (CMC)) was 0 of 4 and the survivor count [1] was 0 of 4.

In the case of CNc1ccccc1Cc1ccccc1, the survivor count (dose: 400.0 mg/kg/injection, schedule: Q01DX009 (ip), vehicle: Klucel (hydroxypropylcellulose) (HPC)) is reported as 5 of 6.

With CC1CC(C)(C)NC(=O)O1 (stereo not drawn) the survivor count (dose: 150.0 mg/kg/injection, schedule: Q01DX009 (ip), vehicle: other) was 0 of 6, the survivor count (dose: 200.0 mg/kg/injection, schedule: Q01DX001 (ip), vehicle: other) was 1 of 6 and the survivor count (dose: 225.0 mg/kg/injection, schedule: Q01DX009 (ip), vehicle: other) was 0 of 6. The survivor count (dose: 335.0 mg/kg/injection, schedule: Q01DX009 (ip), vehicle: other) was 0 of 6 and the survivor count (dose: 400.0 mg/kg/injection, schedule: Q01DX001 (ip), vehicle: other) was 0 of 6.

With O=C(O)C(O)CBr (stereo not drawn) the survivor count (dose: 100.0 mg/kg/injection, schedule: Q04DX003 (ip), vehicle: saline) was 3 of 6, the survivor count (dose: 200.0 mg/kg/injection, schedule: Q04DX003 (ip), vehicle: saline) was 0 of 6 and the survivor count (dose: 400.0 mg/kg/injection, schedule: Q04DX003 (ip), vehicle: saline) was 0 of 6.

CO[Si](OC)(OC)OC was tested, and the survivor count (dose: 100.0 mg/kg/injection, schedule: Q01DX009 (ip), vehicle: saline with Tween-80) was 3 of 6, the survivor count [2] was 0 of 6 and the survivor count (dose: 400.0 mg/kg/injection, schedule: Q04DX003 (ip), vehicle: saline with Tween-80) was 0 of 6.

For CCC[CH2][Sn]1([CH2]CCC)[O]CC2(CCCCC2)C[O]1, the T/C [3] was 144 % of control, the survivor count [3] was 2 of 3 and the survivor count (dose: 40.0 mg/kg/injection, schedule: Q04DX002 (ip), vehicle: saline + alcohol) was 2 of 3. For the same compound, the survivor count (dose: 100.0 mg/kg/injection, schedule: Q04DX002 (ip), vehicle: saline + alcohol) was 0 of 3, the survivor count (dose: 200.0 mg/kg/injection, schedule: Q04DX002 (ip), vehicle: saline + alcohol) was 0 of 3 and the survivor count (dose: 400.0 mg/kg/injection, schedule: Q04DX002 (ip), vehicle: saline + alcohol) was 0 of 3.

CC1CC(NC(=O)CC#N)CC(C)(C)C1 (stereo not drawn) was tested, and the survivor count (dose: 400.0 mg/kg/injection, schedule: Q04DX002 (ip), vehicle: saline with Tween-80) was 0 of 3.

For CCOC(=O)c1ccc(NC(=O)Nc2ccc(OC)c([N+](=O)[O-])c2)cc1, the survivor count (dose: 400.0 mg/kg/injection, schedule: Q01DX009 (ip), vehicle: saline with Tween-80) was 6 of 6.

In the case of NNC(=O)C1CC2C=CCC(C2)C1 (stereo not drawn), the survivor count (dose: 400.0 mg/kg/injection, schedule: Q01DX001 (ip), vehicle: saline with Tween-80) is reported as 3 of 6.

With NC(=O)N(CCCO)/N=C\c1ccc([N+](=O)[O-])o1 the survivor count (dose: 400.0 mg/kg/injection, schedule: Q04DX002 (ip), vehicle: Klucel (hydroxypropylcellulose) (HPC)) was 0 of 3.

With COc1ccc(S(=O)Nc2ccccc2)cc1 (stereo not drawn) the survivor count (dose: 100.0 mg/kg/injection, schedule: Q04DX003 (ip), vehicle: saline with Tween-80) was 3 of 6 and the survivor count [2] was 2 of 6.

For CC(C)(O)C1C2OC(=O)C1C1(O)CC3OC34C(=O)OC2C14C (stereo not drawn), the survivor count (dose: 300.0 mg/kg/injection, schedule: Q01DX001 (ip), vehicle: other) was 0 of 6.

CC(=O)O[C@@]1(C)[C@@H](C)C(=O)O[C@@H]2CCN3CC=C(COC(=O)[C@]1(C)O)[C@H]23 was tested, and the T/C (dose: 25.0 mg/kg/injection, schedule: Q01DX009 (ip), vehicle: carboxymethylcellulose (CMC)) was 131 % of control, the T/C (dose: 50.0 mg/kg/injection, schedule: Q01DX009 (ip), vehicle: saline) was 126 % of control and the T/C (dose: 100.0 mg/kg/injection, schedule: Q01DX009 (ip), vehicle: saline) was 134 % of control. The survivor count (dose: 200.0 mg/kg/injection, schedule: Q01DX009 (ip), vehicle: carboxymethylcellulose (CMC)) was 1 of 6 and the survivor count (dose: 200.0 mg/kg/injection, schedule: Q01DX009 (ip), vehicle: saline) was 3 of 6.

For O=C(CCn1cccc1)c1csc2ccccc12, the survivor count (dose: 100.0 mg/kg/injection, schedule: Q01DX001 (ip), vehicle: carboxymethylcellulose (CMC)) was 2 of 4 and the survivor count [1] was 1 of 4.
